Results reported in the supplement of paper PMC8728848.
The list shows a part of the results.

Assays:
Assay in all cases: glycan array binding signal (z-score within array); higher = stronger binding
Conditions in all cases: glycan notation: IUPAC condensed, linker removed
[1] = target: Fuc(a1-2)Gal(b1-4)GlcNAc(b1-3)Gal(b1-4)GlcNAc(b1-3)Gal(b1-4)GlcNAc
Procedure, shortened: (§1)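 Glycan array binding is given as a within-array Z-score, which can be read as non-binding when negative. The arrays, 3228 of them, came from the Consortium for Functional Glycomics database and were retained only where the protein sequence was available. Z-scores were averaged across arrays of the same protein sequence at different concentrations or buffers and across linkers.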

[2] = target: Fuc(a1-2)Gal(b1-4)GlcNAc(b1-3)GalNAc
Procedure, shortened: as §1

[3] = target: Fuc(a1-2)Gal(b1-4)GlcNAc(b1-3)[Fuc(a1-2)Gal(b1-4)GlcNAc(b1-6)]GalNAc
Procedure, shortened: as §1

[4] = target: Fuc(a1-2)Gal(b1-4)GlcNAc(b1-3)[Fuc(a1-3)[Gal(b1-4)]GlcNAc(b1-6)]Gal(b1-4)Glc
Procedure, shortened: as §1

[5] = target: Fuc(a1-2)Gal(b1-4)GlcNAc(b1-6)GalNAc
Procedure, shortened: as §1

[6] = target: Fuc(a1-2)Gal(b1-4)GlcNAc6S
Procedure, shortened: as §1

[7] = target: Fuc(a1-2)Gal(b1-4)[Fuc(a1-3)]GlcNAc
Procedure, shortened: as §1

[8] = target: Fuc(a1-2)Gal(b1-4)[Fuc(a1-3)]GlcNAc(b1-2)Man(a1-3)[Fuc(a1-2)Gal(b1-4)[Fuc(a1-3)]GlcNAc(b1-2)Man(a1-6)]Man(b1-4)GlcNAc(b1-4)[Fuc(a1-6)]GlcNAc
Procedure, shortened: as §1

[9] = target: Fuc(a1-2)Gal(b1-4)[Fuc(a1-3)]GlcNAc(b1-2)[Fuc(a1-2)Gal(b1-4)[Fuc(a1-3)]GlcNAc(b1-4)]Man(a1-3)[Fuc(a1-2)Gal(b1-4)[Fuc(a1-3)]GlcNAc(b1-2)Man(a1-6)]Man(b1-4)GlcNAc(b1-4)GlcNAc
Procedure, shortened: as §1

[10] = target: Fuc(a1-2)Gal(b1-4)[Fuc(a1-3)]GlcNAc(b1-3)Gal(b1-4)[Fuc(a1-3)]GlcNAc
Procedure, shortened: as §1

[11] = target: Fuc(a1-2)Gal(b1-4)[Fuc(a1-3)]GlcNAc(b1-3)Gal(b1-4)[Fuc(a1-3)]GlcNAc(b1-3)Gal(b1-4)[Fuc(a1-3)]GlcNAc
Procedure, shortened: as §1

[12] = target: Fuc(a1-2)Gal(b1-4)[Fuc(a1-3)]GlcNAc(b1-3)GalNAc
Procedure, shortened: as §1

[13] = target: Fuc(a1-2)Gal(b1-4)[Fuc(a1-3)]GlcNAc(b1-3)[Neu5Ac(a2-6)Gal(b1-4)GlcNAc(b1-6)]Gal(b1-4)Glc
Procedure, shortened: as §1

[14] = target: Fuc(a1-2)Gal3S(b1-4)GlcNAc
Procedure, shortened: as §1

[15] = target: Fuc(a1-2)Gal6S(b1-3)GlcNAc
Procedure, shortened: as §1

[16] = target: Fuc(a1-2)Gal6S(b1-3)GlcNAc6S
Procedure, shortened: as §1

[17] = target: Fuc(a1-2)Gal6S(b1-4)Glc
Procedure, shortened: as §1

[18] = target: Fuc(a1-2)Gal6S(b1-4)Glc6S
Procedure, shortened: as §1

[19] = target: Fuc(a1-2)[Gal(a1-3)]Gal
Procedure, shortened: as §1

[20] = target: Fuc(a1-2)[Gal(a1-3)]Gal(b1-3)GalNAc
Procedure, shortened: as §1

[21] = target: Fuc(a1-2)[Gal(a1-3)]Gal(b1-3)GalNAc(b1-3)Gal(a1-4)Gal(b1-4)Glc
Procedure, shortened: as §1

[22] = target: Fuc(a1-2)[Gal(a1-3)]Gal(b1-3)GlcNAc
Procedure, shortened: as §1

[23] = target: Fuc(a1-2)[Gal(a1-3)]Gal(b1-3)GlcNAc(b1-2)Man(a1-3)[Fuc(a1-2)[Gal(a1-3)]Gal(b1-3)GlcNAc(b1-2)Man(a1-6)]Man(b1-4)GlcNAc(b1-4)GlcNAc
Procedure, shortened: as §1

[24] = target: Fuc(a1-2)[Gal(a1-3)]Gal(b1-3)GlcNAc(b1-2)Man(a1-3)[Fuc(a1-2)[Gal(a1-3)]Gal(b1-3)GlcNAc(b1-2)Man(a1-6)]Man(b1-4)GlcNAc(b1-4)[Fuc(a1-6)]GlcNAc
Procedure, shortened: as §1

[25] = target: Fuc(a1-2)[Gal(a1-3)]Gal(b1-3)GlcNAc(b1-3)GalNAc
Procedure, shortened: as §1

[26] = target: Fuc(a1-2)[Gal(a1-3)]Gal(b1-3)GlcNAc(b1-6)GalNAc
Procedure, shortened: as §1

[27] = target: Fuc(a1-2)[Gal(a1-3)]Gal(b1-4)Glc
Procedure, shortened: as §1

[28] = target: Fuc(a1-2)[Gal(a1-3)]Gal(b1-4)GlcNAc
Procedure, shortened: as §1

[29] = target: Fuc(a1-2)[Gal(a1-3)]Gal(b1-4)GlcNAc(b1-2)Man
Procedure, shortened: as §1

[30] = target: Fuc(a1-2)[Gal(a1-3)]Gal(b1-4)GlcNAc(b1-2)Man(a1-3)[Fuc(a1-2)[Gal(a1-3)]Gal(b1-4)GlcNAc(b1-2)Man(a1-6)]Man(b1-4)GlcNAc(b1-4)GlcNAc
Procedure, shortened: as §1

[31] = target: Fuc(a1-2)[Gal(a1-3)]Gal(b1-4)GlcNAc(b1-2)Man(a1-3)[Fuc(a1-2)[Gal(a1-3)]Gal(b1-4)GlcNAc(b1-2)Man(a1-6)]Man(b1-4)GlcNAc(b1-4)[Fuc(a1-6)]GlcNAc
Procedure, shortened: as §1

[32] = target: Fuc(a1-2)[Gal(a1-3)]Gal(b1-4)GlcNAc(b1-3)GalNAc
Procedure, shortened: as §1

[33] = target: Fuc(a1-2)[Gal(a1-3)]Gal(b1-4)GlcNAc(b1-3)[Fuc(a1-2)[Gal(a1-3)]Gal(b1-4)GlcNAc(b1-6)]GalNAc
Procedure, shortened: as §1

[34] = target: Fuc(a1-2)[Gal(a1-3)]Gal(b1-4)GlcNAc(b1-6)GalNAc
Procedure, shortened: as §1

[35] = target: Fuc(a1-2)[Gal(a1-3)]Gal(b1-4)[Fuc(a1-3)]Glc
Procedure, shortened: as §1

[36] = target: Fuc(a1-2)[Gal(a1-3)]Gal(b1-4)[Fuc(a1-3)]GlcNAc
Procedure, shortened: as §1

[37] = target: Fuc(a1-2)[Gal(a1-3)]Gal(b1-4)[Fuc(a1-3)]GlcNAc(b1-3)GalNAc
Procedure, shortened: as §1

[38] = target: Fuc(a1-2)[Gal(a1-4)]Gal(b1-4)GlcNAc
Procedure, shortened: as §1

[39] = target: Fuc(a1-2)[GalNAc(a1-3)]Gal
Procedure, shortened: as §1

[40] = target: Fuc(a1-2)[GalNAc(a1-3)]Gal(b1-3)GalNAc(a1-3)[Fuc(a1-2)]Gal(b1-4)GlcNAc
Procedure, shortened: as §1

[41] = target: Fuc(a1-2)[GalNAc(a1-3)]Gal(b1-3)GalNAc(b1-3)Gal(a1-4)Gal(b1-4)Glc
Procedure, shortened: as §1

[42] = target: Fuc(a1-2)[GalNAc(a1-3)]Gal(b1-3)GlcNAc
Procedure, shortened: as §1

[43] = target: Fuc(a1-2)[GalNAc(a1-3)]Gal(b1-3)GlcNAc(b1-2)Man(a1-3)[Fuc(a1-2)[GalNAc(a1-3)]Gal(b1-3)GlcNAc(b1-2)Man(a1-6)]Man(b1-4)GlcNAc(b1-4)GlcNAc
Procedure, shortened: as §1

[44] = target: Fuc(a1-2)[GalNAc(a1-3)]Gal(b1-3)GlcNAc(b1-2)Man(a1-3)[Fuc(a1-2)[GalNAc(a1-3)]Gal(b1-3)GlcNAc(b1-2)Man(a1-6)]Man(b1-4)GlcNAc(b1-4)[Fuc(a1-6)]GlcNAc
Procedure, shortened: as §1

[45] = target: Fuc(a1-2)[GalNAc(a1-3)]Gal(b1-3)GlcNAc(b1-3)GalNAc
Procedure, shortened: as §1

B1: LF82 (Escherichia coli) (protein)
chain: ADWGPCRTASGDPFIFVTSFTKNIQNPTDNVTGQTYPDFYQWALGDKYSGVCECPSPNPTEARPTLYKTESTLAAGHNSTYFKITNNLEVSTRVYIANVGNVQVPFINKSNSQPGRECDQPTFGWTTGSKGQLSLYIAKPFVGEQNIPQTIIVSVFGTKKENVYSSVPISQVLLSGKVTVTQGCELAAGTSLDIDFGEYQAHDFKGRTGQPPQNVQKIQKELTFNCTNISDGVHIYLSLEGTPNAAYPSAISLGNADVGAVIEDGKGNILKPNDSNSLLEMNPGSLYEYVKRKVTTTITAYPVSTTGKLPAAGDYSGVATMHVELDGGGGGGGGGGATTDLGAKGTLKFSLKISQGHHHHHH
glycan array binding signal (z-score) [1]: -0.19
glycan array binding signal (z-score) [2]: 1.85
glycan array binding signal (z-score) [3]: -0.393
glycan array binding signal (z-score) [4]: -1.07
glycan array binding signal (z-score) [5]: -0.243
glycan array binding signal (z-score) [6]: -0.741
glycan array binding signal (z-score) [7]: -0.733
glycan array binding signal (z-score) [8]: 1.22
glycan array binding signal (z-score) [9]: 0.094
glycan array binding signal (z-score) [10]: -1.73
glycan array binding signal (z-score) [11]: 0.016
glycan array binding signal (z-score) [12]: -0.268
glycan array binding signal (z-score) [13]: -0.342
glycan array binding signal (z-score) [14]: -0.467
glycan array binding signal (z-score) [15]: 0.113
glycan array binding signal (z-score) [16]: -0.122
glycan array binding signal (z-score) [17]: -2.14
glycan array binding signal (z-score) [18]: -0.548
glycan array binding signal (z-score) [19]: -0.386
glycan array binding signal (z-score) [20]: -0.228
glycan array binding signal (z-score) [21]: -0.93
glycan array binding signal (z-score) [22]: -0.338
glycan array binding signal (z-score) [23]: -0.09
glycan array binding signal (z-score) [24]: 3.84
glycan array binding signal (z-score) [25]: -1.86
glycan array binding signal (z-score) [26]: -0.795
glycan array binding signal (z-score) [27]: -0.473
glycan array binding signal (z-score) [28]: -0.268
glycan array binding signal (z-score) [29]: -0.821
glycan array binding signal (z-score) [30]: 0.087
glycan array binding signal (z-score) [31]: -0.505
glycan array binding signal (z-score) [32]: -0.393
glycan array binding signal (z-score) [33]: -0.196
glycan array binding signal (z-score) [34]: 0.16
glycan array binding signal (z-score) [35]: -0.693
glycan array binding signal (z-score) [36]: 0.185
glycan array binding signal (z-score) [37]: -0.354
glycan array binding signal (z-score) [38]: -0.825
glycan array binding signal (z-score) [39]: -0.238
glycan array binding signal (z-score) [40]: -0.082
glycan array binding signal (z-score) [41]: -1.08
glycan array binding signal (z-score) [42]: 0.476
glycan array binding signal (z-score) [43]: 0.811
glycan array binding signal (z-score) [44]: -0.111
glycan array binding signal (z-score) [45]: 1.38
